Measurements published in US10393755B2, “Compositions and methods for treating eye infections and disease” (UNIVERSITY OF VIRGINIA PATENT FOUNDATION, priority 2014, dated 2019).
At least one peptide structure holds a part that was inferred or is arguable (an end, a ring closure or a residue). No end group written: not given here.

Assays:
HCE-T cells [1] = assay: FOXO3 translocation assay in IFNG/TNF stressed HCE-T cells; type: cell-based, human; details: 10 nM; interferon-γ and TNF stressed HCE-T cells
Protocol: For FOXO3 translocation assays, HCE-T cells were grown in triplicate to subconfluence (˜50%) on coverslips in α-MEM (5.54 mm glucose), sensitized overnight in IFNG (100 units/ml; Roche Applied Science), and treated for 15 min with normal or dry eye tears diluted 1:100 in α-MEM together with TNF (50 ng/ml; PeproTech, Rocky Hill, N.J.) without or with 10 nm lacritin or C-25. Cells were washed, fixed with 4% paraformaldehyde, and immunostained for FOXO3 (1:200; Millipore, Billerica, Mass.) followed by goat anti-rabbit secondary antibody and visualization on a Zeiss LSM 700 microscope.

corneal sensory nerves = assay: Corneal sensory nerve activity monitored at the trigeminal ganglion; type: in vivo, rat; details: topical, relative to C-25D
Source text: Topical lacritin stimulates tearing even without physical access to lacrimal acinar cells. The rapidity of the response is in keeping with corneal sensory nerve activation. Individual corneal sensory nerve activity was monitored at the level of the trigeminal ganglion in rats via previously described methods. Emerging from these studies was the observation that topical lacritin is neural stimulatory. […] The ‘dry response’ refers to neural activation as a consequence of drying of the cornea, which is thought to be a critical TRPM8-mediated stimulus for tearing, while the ‘wet response’ occurs when the agonist is present at the corneal nerve terminals. […] Apparent inhibition of the action potentials by lacritin during wet cornea was small because the TRPM8 activity during wet cornea is low to begin with, while it reaches optimal level during dry cornea when dynamic cooling of the ocular surface is taking place. Lacritin may also increase TRPM8 neural density.

Aire(−/−) dry eye mice = assay: Topical treatment of Aire(-/-) dry eye mice; type: in vivo, mouse
Protocol: Autoimmune regulator (Aire)-deficient [Aire^−/−] mice spontaneously develop dry eye without need for dry chambers or scopolamine Aire^−/− mice were dosed three times daily for three weeks with 10 μl of 50 μg/mllacritin, or in controls with PBS. Several different assays monitored the consequences. […] Topical lacritin reduced CD4+T cell infiltration into lacrimal glands measured as the number of lymphocytic foci/per millimeter square area of lacrimal gland tissue (3.68±0.65 per mm sq lacritin vs. 9.7+1.5 per mm sq PBS; P=0.01), but had no apparent effect on the pattern or distribution of CD4+T cells into either the corneal stroma (14.6±1.6 lacritin vs 12.4±2.1 PBS) or the limbus (29.6±2.5 lacritin vs 34.6±2.9 PBS.
To assess ocular surface mucosal damage from dry eye, eyes of Aire(−/−) dry eye mice were topically administered lissamine green that increasingly stained PBS-treated eyes with time (See FIG. 4C). […] Thus, topical lacritin, and its bioactive fragments thereof, diminished lacrimal gland inflammation and corneal staining in dry eye, and promoted ocular surface differentiation. Importantly, suppression of inflammation and promotion of tearing was achieved without direct contact with inflammatory cells nor with tear producing cells.

basal tearing = assay: Basal tearing after topical application; type: in vivo, rabbit
human cell culture = assay: Dose optimum in human cell culture; type: cell-based
HCE-T cells [2] = assay: Viability (MTT) / cytoprotection of IFNG/TNF stressed cells; type: cell-based, human; details: generated synthetically
Protocol: Viability was monitored using the 3-(4,5-dimethyl[…])-2,5-diphenyltetrazolium bromide) (MTT) reduction assay (Invitrogen) or a Nucleocounter (New Brunswick Scientific, Edison, N.J.). Cells were seeded overnight in 24-well plates at a density of 500 cells/mm2 to give rise to ˜80% confluence the next day. Then cells were sensitized overnight in IFNG (100 units/ml) in α-MEM and treated in triplicate for 15 min with 10 nm lacritin or lacritin deletion or point mutants or with different lacritin doses in α-MEM together with TNF as described above.
Inclusion of inhibitors was simultaneous with the addition of lacritin or C-25 in all viability and other experiments except where otherwise noted. Inhibitors included PI103 (0.5 μm; EMD, Darmstadt, Germany), rapamycin (10 and 100 nm; EMD), and cyclosporin A (0.1 μm; EMD). One exception was 4-methylumbelliferyl-β-d-xylopyranoside (“xyloside”; 70 and 80 nm; Sigma), which was added during IFNG sensitization and during treatment with TNF and lacritin. The assay was completed by addition of MTT (5 mg/ml) to each well (at 37° C. for 4 h) followed by isopropanol with 0.04 n HCl and measurement at 570 nm using a reference wavelength of 630 nm. Viability was assayed in a Nucleocounter (New Brunswick Scientific).

“Ac-KQFIENGSEFAQKLLKKFSLLKPWA (N-terminus assumed) [LACRIPEP]” was tested, and the “FOXO3 cytoplasmic staining (pro-survival activity)” value (HCE-T cells [1]) was “equally active as lacritin”, the “Corneal sensory nerve stimulation, dose response” value (corneal sensory nerves) was “Biphasic dose response” and the “Inflammation of the lacrimal gland” value (Aire(−/−) dry eye mice) was “reduced inflammation of the lacrimal gland”. For the same substance, the “Corneal staining as dry eye disease develops” value (Aire(−/−) dry eye mice; relative to PBS) was “less corneal staining”, the “Tearing as dry eye disease develops” value (Aire(−/−) dry eye mice; relative to PBS) was “prevents loss of tearing” and the Optimal dose (basal tearing; animal studies (FIGS. 7A & 7B)) was 0.0012%. The Optimal dose (basal tearing; animal studies (FIGS. 7A & 7B: rabbit basal tearing, rat corneal sensory nerve stimulation)) was about 4 µM, the “Basal tearing, dose response” value (basal tearing; topical, relative to C-25D) was “Biphasic dose response” and the Optimal dose (human cell culture) was 1 to 10 nM. For the same substance, the “Activity of synthetic peptide relative to lacritin” value (HCE-T cells [2]) was “as potent as lacritin”.
